The other results are listed elsewhere or left out.
Assays:
Experiment in all cases: log2 fold change, soluble protein after heating vs DMSO (PISA); higher = thermal stabilisation; K562 lysate, 10 uM; active = over 0.2 and 3.5 SD of the protein, either way, in both replicates (recomputed)
alvocidib = compound: CN1CC[C@H](c2c(O)cc(O)c3c(=O)cc(-c4ccccc4Cl)oc23)[C@H](O)C1 [alvocidib]
Summary of the method: (§1)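 To prepare the extract, K562 pellets were dounce-homogenised in PBS pH 7.4 with 1 mM MgCl2, giving crude material at 1 mg/mL protein. This was treated with 10 μM compound for 30 min, then heated in aliquots for 3 min over 48°C-58°C before pooling and addition of NP-40 to 0.5% at 4°C. Centrifugation at 21,000xg for 90 min left soluble protein in the supernatant, which TMTpro 16plex LC-MS/MS quantified with equalised channel sums. Results are log-two fold changes in thermal stability compared with solvent controls, from duplicates.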

Protein sequences, listed by entry. Tags and fused reporters are not part of them. Lines headed by an entry give the natural chain unless they say otherwise; changes in a name come on top.
UniProt Q9BR61: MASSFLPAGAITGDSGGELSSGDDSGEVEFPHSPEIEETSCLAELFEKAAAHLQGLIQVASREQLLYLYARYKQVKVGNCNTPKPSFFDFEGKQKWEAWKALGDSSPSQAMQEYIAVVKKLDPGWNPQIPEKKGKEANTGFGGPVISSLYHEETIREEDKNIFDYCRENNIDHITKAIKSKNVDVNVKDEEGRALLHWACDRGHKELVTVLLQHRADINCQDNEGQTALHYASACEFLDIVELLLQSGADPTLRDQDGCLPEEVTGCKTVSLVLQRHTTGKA
UniProt Q9NUQ8: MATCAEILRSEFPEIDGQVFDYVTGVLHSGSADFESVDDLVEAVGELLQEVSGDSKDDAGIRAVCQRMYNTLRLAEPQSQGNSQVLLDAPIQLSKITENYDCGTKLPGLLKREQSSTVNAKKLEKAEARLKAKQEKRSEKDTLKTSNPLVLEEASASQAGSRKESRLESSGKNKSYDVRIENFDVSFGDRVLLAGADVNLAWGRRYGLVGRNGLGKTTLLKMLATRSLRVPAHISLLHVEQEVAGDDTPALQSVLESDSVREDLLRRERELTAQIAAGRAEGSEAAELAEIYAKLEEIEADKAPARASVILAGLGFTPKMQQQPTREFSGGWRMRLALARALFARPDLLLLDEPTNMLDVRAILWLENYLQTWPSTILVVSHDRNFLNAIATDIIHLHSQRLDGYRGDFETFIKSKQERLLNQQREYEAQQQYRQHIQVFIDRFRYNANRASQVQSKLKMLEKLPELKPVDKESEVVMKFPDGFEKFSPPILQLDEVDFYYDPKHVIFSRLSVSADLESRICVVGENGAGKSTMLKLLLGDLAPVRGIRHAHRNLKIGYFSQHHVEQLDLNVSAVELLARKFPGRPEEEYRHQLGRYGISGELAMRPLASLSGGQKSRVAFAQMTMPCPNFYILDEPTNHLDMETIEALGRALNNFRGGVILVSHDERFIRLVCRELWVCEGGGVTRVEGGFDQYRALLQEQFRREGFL
UniProt Q96GS6: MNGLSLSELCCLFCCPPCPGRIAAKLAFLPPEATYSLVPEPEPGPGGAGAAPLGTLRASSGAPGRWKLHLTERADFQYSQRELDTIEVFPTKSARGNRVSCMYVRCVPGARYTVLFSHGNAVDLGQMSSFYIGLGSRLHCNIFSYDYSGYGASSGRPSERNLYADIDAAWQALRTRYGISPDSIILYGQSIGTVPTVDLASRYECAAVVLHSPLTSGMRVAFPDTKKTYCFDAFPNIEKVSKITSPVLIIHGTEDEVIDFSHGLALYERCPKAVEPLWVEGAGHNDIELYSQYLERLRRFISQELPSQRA
UniProt P53396: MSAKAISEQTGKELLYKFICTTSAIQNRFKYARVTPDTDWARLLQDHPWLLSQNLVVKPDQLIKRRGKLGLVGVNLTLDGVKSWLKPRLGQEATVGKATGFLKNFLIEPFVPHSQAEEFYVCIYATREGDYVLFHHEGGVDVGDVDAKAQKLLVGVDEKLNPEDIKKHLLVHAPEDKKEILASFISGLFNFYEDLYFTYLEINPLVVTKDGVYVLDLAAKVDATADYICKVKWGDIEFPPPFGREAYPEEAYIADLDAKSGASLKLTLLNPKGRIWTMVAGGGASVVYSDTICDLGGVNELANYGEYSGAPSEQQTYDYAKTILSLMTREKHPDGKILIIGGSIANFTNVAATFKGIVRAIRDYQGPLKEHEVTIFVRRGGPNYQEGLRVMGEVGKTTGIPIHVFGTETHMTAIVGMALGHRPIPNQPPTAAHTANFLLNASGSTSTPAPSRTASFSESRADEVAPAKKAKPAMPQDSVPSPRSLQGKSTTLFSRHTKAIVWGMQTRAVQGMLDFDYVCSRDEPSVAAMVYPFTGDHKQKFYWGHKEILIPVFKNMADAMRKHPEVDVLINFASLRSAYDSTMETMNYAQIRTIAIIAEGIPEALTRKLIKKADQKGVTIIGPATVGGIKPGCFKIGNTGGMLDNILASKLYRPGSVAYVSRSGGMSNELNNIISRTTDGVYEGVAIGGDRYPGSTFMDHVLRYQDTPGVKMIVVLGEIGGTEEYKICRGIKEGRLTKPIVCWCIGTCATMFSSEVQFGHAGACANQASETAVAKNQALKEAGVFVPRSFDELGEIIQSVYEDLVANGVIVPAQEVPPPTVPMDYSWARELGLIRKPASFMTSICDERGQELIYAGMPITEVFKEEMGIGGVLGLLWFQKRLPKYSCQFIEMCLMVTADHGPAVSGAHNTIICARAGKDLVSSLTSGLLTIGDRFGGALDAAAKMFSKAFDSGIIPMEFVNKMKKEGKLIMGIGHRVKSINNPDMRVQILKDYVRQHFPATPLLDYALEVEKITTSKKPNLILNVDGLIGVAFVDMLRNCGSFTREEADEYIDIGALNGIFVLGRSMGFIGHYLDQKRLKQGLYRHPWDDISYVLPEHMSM
UniProt P09110: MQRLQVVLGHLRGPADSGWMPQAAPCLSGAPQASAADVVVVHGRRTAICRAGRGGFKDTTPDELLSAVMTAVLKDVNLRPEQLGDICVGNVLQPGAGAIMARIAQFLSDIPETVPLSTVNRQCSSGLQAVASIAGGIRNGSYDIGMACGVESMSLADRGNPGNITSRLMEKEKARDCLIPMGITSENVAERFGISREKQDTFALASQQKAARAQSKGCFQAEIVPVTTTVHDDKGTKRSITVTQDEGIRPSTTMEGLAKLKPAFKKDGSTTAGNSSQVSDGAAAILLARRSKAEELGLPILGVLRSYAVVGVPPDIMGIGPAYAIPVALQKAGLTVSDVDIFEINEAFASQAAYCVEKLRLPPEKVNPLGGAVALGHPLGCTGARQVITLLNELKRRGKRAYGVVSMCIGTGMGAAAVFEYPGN
UniProt P16219: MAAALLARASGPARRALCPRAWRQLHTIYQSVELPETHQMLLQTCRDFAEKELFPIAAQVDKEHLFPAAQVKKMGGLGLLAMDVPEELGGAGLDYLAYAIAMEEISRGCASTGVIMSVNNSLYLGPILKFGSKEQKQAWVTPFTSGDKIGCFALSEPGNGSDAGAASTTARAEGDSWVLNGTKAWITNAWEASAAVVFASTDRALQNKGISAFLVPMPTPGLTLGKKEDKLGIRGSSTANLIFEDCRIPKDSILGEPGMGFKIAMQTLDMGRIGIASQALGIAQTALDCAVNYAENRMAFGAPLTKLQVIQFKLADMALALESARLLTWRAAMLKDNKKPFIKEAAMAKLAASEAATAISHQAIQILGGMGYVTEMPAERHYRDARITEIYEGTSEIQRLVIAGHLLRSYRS
UniProt Q8NFV4: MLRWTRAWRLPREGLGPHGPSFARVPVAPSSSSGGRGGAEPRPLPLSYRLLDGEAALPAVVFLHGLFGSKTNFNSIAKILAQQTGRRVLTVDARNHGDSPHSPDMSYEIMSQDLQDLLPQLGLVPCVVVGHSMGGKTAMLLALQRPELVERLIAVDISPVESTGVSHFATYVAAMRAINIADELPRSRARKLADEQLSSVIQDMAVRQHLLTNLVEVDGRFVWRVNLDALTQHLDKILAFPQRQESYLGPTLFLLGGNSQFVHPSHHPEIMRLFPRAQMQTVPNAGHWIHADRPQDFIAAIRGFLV
UniProt P11310: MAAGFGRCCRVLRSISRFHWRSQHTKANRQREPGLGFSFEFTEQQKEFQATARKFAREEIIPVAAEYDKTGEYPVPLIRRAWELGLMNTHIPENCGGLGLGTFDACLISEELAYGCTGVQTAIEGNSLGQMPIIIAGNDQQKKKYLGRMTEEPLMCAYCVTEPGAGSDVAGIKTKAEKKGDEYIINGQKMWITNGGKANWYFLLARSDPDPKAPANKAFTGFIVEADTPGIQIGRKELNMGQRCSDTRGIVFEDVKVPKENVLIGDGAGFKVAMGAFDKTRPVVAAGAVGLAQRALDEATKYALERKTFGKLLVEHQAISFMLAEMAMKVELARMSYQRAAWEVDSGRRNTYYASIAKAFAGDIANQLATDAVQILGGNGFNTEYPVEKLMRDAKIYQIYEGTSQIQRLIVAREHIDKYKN
UniProt P33527: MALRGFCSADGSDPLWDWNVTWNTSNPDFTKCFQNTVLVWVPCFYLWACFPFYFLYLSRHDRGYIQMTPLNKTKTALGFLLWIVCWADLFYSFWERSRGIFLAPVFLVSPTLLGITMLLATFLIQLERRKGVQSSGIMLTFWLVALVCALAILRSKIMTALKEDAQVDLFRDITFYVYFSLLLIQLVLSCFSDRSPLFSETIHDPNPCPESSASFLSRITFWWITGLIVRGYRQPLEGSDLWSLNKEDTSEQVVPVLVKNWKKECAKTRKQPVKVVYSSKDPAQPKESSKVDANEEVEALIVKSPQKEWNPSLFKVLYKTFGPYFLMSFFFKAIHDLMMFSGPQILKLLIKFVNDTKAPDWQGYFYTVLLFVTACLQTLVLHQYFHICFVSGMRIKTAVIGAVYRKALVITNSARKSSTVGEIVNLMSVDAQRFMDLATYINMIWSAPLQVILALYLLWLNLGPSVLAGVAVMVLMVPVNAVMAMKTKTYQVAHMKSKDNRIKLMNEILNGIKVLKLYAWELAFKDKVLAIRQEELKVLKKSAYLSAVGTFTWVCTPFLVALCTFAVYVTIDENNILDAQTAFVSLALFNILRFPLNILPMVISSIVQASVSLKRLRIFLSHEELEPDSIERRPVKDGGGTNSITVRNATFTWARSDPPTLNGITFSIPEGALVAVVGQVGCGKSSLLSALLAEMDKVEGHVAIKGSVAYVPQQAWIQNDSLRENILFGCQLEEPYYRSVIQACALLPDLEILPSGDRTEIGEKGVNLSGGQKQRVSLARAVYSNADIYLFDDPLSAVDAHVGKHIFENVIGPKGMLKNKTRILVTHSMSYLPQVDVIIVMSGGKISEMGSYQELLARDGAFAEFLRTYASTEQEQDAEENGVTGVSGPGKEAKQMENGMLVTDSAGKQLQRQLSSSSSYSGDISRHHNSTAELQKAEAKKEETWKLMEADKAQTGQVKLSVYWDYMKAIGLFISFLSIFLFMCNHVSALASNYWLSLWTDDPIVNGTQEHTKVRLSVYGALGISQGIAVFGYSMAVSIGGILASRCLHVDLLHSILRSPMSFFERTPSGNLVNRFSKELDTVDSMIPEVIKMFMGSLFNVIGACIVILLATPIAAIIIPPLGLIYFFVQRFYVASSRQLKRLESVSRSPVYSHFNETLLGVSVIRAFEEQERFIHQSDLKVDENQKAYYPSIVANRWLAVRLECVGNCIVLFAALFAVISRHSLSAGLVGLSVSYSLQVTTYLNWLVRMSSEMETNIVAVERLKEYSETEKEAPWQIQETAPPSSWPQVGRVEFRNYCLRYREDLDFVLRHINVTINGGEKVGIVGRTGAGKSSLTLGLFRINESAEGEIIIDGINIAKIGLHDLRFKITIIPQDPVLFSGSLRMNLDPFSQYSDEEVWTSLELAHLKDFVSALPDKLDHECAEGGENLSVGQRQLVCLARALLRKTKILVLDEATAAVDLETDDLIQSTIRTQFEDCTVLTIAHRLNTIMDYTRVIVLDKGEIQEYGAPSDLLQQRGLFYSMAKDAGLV
UniProt P42765: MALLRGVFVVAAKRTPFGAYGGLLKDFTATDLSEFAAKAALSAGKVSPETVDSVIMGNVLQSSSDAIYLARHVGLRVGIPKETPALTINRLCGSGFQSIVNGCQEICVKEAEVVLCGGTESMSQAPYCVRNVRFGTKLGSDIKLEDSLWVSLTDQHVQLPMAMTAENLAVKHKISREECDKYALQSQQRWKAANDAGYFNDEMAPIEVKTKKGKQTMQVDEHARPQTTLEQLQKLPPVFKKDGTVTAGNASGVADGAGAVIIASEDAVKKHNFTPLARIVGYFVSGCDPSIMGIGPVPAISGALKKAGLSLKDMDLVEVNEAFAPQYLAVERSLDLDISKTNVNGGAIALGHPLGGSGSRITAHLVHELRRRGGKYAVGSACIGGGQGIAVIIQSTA
UniProt Q9NRN7: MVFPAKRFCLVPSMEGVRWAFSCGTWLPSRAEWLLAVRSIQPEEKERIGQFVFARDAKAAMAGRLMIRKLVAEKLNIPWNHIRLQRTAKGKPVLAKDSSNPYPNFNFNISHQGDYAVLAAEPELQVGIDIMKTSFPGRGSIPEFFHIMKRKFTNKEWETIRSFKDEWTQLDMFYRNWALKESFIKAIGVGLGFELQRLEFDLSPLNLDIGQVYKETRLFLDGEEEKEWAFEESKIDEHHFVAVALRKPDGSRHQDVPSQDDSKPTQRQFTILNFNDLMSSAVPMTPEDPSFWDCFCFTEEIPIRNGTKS
UniProt Q96IU4: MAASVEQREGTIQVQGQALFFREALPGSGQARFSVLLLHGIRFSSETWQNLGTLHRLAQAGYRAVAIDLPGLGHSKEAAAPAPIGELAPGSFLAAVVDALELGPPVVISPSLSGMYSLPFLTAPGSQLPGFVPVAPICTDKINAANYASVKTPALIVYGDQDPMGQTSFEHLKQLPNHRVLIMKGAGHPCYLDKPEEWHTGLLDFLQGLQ

Tubastatin A = compound: CN1CCc2c(c3ccccc3n2Cc2ccc(C(=O)NO)cc2)C1 [Tubastatin A]
Summary of the method: as §1

[1] = compound: CNC(=O)C1=CC=CC=C1NC2=NC(=NC=C2Cl)NC3=C(C=C(C=C3)N4CCOCC4)OC
Summary of the method: as §1

defactinib = compound: CNC(=O)c1ccc(Nc2ncc(C(F)(F)F)c(NCc3nccnc3N(C)S(C)(=O)=O)n2)cc1 [defactinib]
Summary of the method: as §1

[2] = compound: CNc1nc(-c2ccc3c(N)n[nH]c3c2)cc(N2C[C@@H](C(=O)NC3CCCCC3)CC[C@H]2C)n1
Summary of the method: as §1

encorafenib = compound: COC(=O)N[C@@H](C)CNc1nccc(-c2cn(C(C)C)nc2-c2cc(Cl)cc(NS(C)(=O)=O)c2F)n1 [encorafenib]
Summary of the method: as §1

[3] = compound: COC(=O)[C@H](CCSC)NC(=O)C1=C(C=C(C=C1)NC[C@H](CS)N)C2=CC=CC=C2
Summary of the method: as §1

alisertib = compound: COc1cc(Nc2ncc3c(n2)-c2ccc(Cl)cc2C(c2c(F)cccc2OC)=NC3)ccc1C(=O)O [alisertib]
Summary of the method: as §1

[4] = compound: COc1cc2nc(-c3cc(F)ccc3O)nc(N[C@@H]3CNC[C@H]3C(C)(C)O)c2cc1OC
Summary of the method: as §1

gefitinib = compound: COc1cc2ncnc(Nc3ccc(F)c(Cl)c3)c2cc1OCCCN1CCOCC1 [gefitinib]
Summary of the method: as §1

lapatinib = compound: CS(=O)(=O)CCNCc1ccc(-c2ccc3ncnc(Nc4ccc(OCc5cccc(F)c5)c(Cl)c4)c3c2)o1 [lapatinib]
Summary of the method: as §1

pictilisib = compound: CS(=O)(=O)N1CCN(Cc2cc3nc(-c4cccc5[nH]ncc45)nc(N4CCOCC4)c3s2)CC1 [pictilisib]
Summary of the method: as §1

crizotinib = compound: C[C@@H](Oc1cc(-c2cnn(C3CCNCC3)c2)cnc1N)c1c(Cl)ccc(F)c1Cl [crizotinib]
Summary of the method: as §1

[5] = compound: C[C@H](C1=CC=C(C=C1)C(=O)NC2=C3C=CNC3=NC=C2)N
Summary of the method: as §1

duvelisib = compound: C[C@H](Nc1ncnc2nc[nH]c12)c1cc2cccc(Cl)c2c(=O)n1-c1ccccc1 [duvelisib]
Summary of the method: as §1

gandotinib = compound: Cc1cc(Nc2cc(CN3CCOCC3)c3nc(C)c(Cc4ccc(Cl)cc4F)n3n2)n[nH]1 [gandotinib]
Summary of the method: as §1

tozasertib = compound: Cc1cc(Nc2cc(N3CCN(C)CC3)nc(Sc3ccc(NC(=O)C4CC4)cc3)n2)n[nH]1 [tozasertib]
Summary of the method: as §1

doramapimod = compound: Cc1ccc(-n2nc(C(C)(C)C)cc2NC(=O)Nc2ccc(OCCN3CCOCC3)c3ccccc23)cc1 [doramapimod]
Summary of the method: as §1

bafetinib = compound: Cc1ccc(NC(=O)c2ccc(CN3CC[C@H](N(C)C)C3)c(C(F)(F)F)c2)cc1Nc1nccc(-c2cncnc2)n1 [bafetinib]
Summary of the method: as §1

[6] = compound: Cc1cccc(CC(=O)N2CCc3c2ccc(-c2cn(C)c4ncnc(N)c24)c3F)n1
Summary of the method: as §1

Measured: log2 fold change

ACBD3 (UniProt Q9H3P7)
inactive: alvocidib -0.006 | Tubastatin A -0.044 | [1] 0.029 | defactinib 0.003 | [2] -0.037 | encorafenib 0.004 | [3] -0.014 | alisertib -0.027 | [4] 0.004 | gefitinib -0.013 | lapatinib 0.009 | pictilisib 0.024 | crizotinib 0.02 | [5] 0.028 | duvelisib 0.013 | gandotinib -0.025 | tozasertib -0.034 | doramapimod 0.002 | bafetinib -0.014 | [6] 0.014

A0A096LPI6, A0A096LPI6
inactive: alvocidib 0.005 | Tubastatin A 0.055 | [1] 0.043 | defactinib -0.016 | [2] 0.068 | encorafenib -0.038 | [3] 0.012 | alisertib -0.011 | [4] -0.03 | gefitinib 0.004 | lapatinib 0.021 | pictilisib -0.03 | crizotinib 0.012 | [5] 0.048 | duvelisib 0.033 | gandotinib -0.036 | tozasertib 0.012 | doramapimod -0.075 | bafetinib 0.005 | [6] -0.038

ACBD6 (UniProt Q9BR61)
inactive: alvocidib -0.009 | Tubastatin A -0.15 | [1] 0.056 | defactinib -0.005 | [2] 0.016 | encorafenib -0.003 | [3] 0.051 | alisertib -0.006 | [4] 0.016 | gefitinib -0.022 | lapatinib -0.002 | pictilisib 0.01 | crizotinib -0.04 | [5] -0.036 | duvelisib 0.063 | gandotinib -0.01 | tozasertib -0.051 | doramapimod -0.024 | bafetinib -0.047 | [6] 0.006

ABCF3 (UniProt Q9NUQ8)
inactive: alvocidib 0.013 | Tubastatin A -0.172 | [1] 0.029 | defactinib -0.01 | [2] -0.01 | encorafenib -0.031 | [3] 0.11 | alisertib 0.004 | [4] -0.003 | gefitinib -0.006 | lapatinib -0.019 | pictilisib 0.006 | crizotinib -0.033 | [5] 0.02 | duvelisib 0.018 | gandotinib -0.075 | tozasertib 0.063 | doramapimod 0.011 | bafetinib -0.062 | [6] 0.017

ABHD17A isoform 2 (UniProt Q96GS6)
inactive: alvocidib -0.025 | Tubastatin A 0.023 | [1] -0.025 | defactinib -0.009 | [2] 0.01 | encorafenib -0.009 | [3] -0.222 | alisertib -0.12 | [4] 0.04 | gefitinib 0.044 | lapatinib -0.034 | pictilisib -0.044 | crizotinib 0.017 | [5] -0.074 | duvelisib 0.01 | gandotinib 0.139 | tozasertib 0.019 | doramapimod 0.044 | bafetinib 0.019 | [6] 0.065

ACLY (UniProt P53396)
inactive: alvocidib 0.022 | Tubastatin A 0.078 | [1] -0.006 | defactinib -0.036 | [2] 0.01 | encorafenib -0.043 | [3] 0.133 | alisertib 0.016 | [4] 0.003 | gefitinib 0.004 | lapatinib -0.011 | pictilisib -0.009 | crizotinib -0.005 | [5] -0.025 | duvelisib 0.012 | gandotinib 0.01 | tozasertib 0.003 | doramapimod 0.015 | bafetinib 0.008 | [6] 0.013

ACAA1 (UniProt P09110)
inactive: alvocidib -0.027 | Tubastatin A 0.043 | [1] 0.008 | defactinib 0.008 | [2] 0.093 | encorafenib -0.021 | [3] 0.012 | alisertib -0.035 | [4] 0.01 | gefitinib 0.015 | lapatinib 0.017 | pictilisib -0.005 | crizotinib 0.014 | [5] -0.015 | duvelisib -0.014 | gandotinib 0.056 | tozasertib -0.043 | doramapimod -0.001 | bafetinib 0.045 | [6] -0.011

ACADS (UniProt P16219)
inactive: alvocidib -0.011 | Tubastatin A -0.003 | [1] 0.019 | defactinib -0.011 | [2] 0.014 | encorafenib -0.034 | [3] 0.071 | alisertib -0.003 | [4] -0.037 | gefitinib -0.023 | lapatinib -0.004 | pictilisib -0.018 | crizotinib -0.027 | [5] -0.026 | duvelisib -0.003 | gandotinib 0.016 | tozasertib -0.013 | doramapimod 0.008 | bafetinib 0.037 | [6] 0.034

ABHD11 (UniProt Q8NFV4)
active: gandotinib 0.853
inactive: alvocidib 0 | Tubastatin A 0.032 | [1] -0.066 | defactinib 0.034 | [2] 0.087 | encorafenib -0.028 | [3] 0.173 | alisertib -0.027 | [4] 0.022 | gefitinib 0.004 | lapatinib 0.024 | pictilisib 0.033 | crizotinib -0.019 | [5] -0.121 | duvelisib 0.028 | tozasertib 0.081 | doramapimod -0.034 | bafetinib 0.009 | [6] 0.05

ACADM isoform 2 (UniProt P11310)
active: [2] 0.386
inactive: alvocidib -0.022 | Tubastatin A -0.012 | [1] 0.046 | defactinib -0.01 | encorafenib -0.032 | [3] 0.13 | alisertib 0.062 | [4] 0.09 | gefitinib -0.024 | lapatinib -0.007 | pictilisib -0.009 | crizotinib -0.042 | [5] -0.007 | duvelisib -0.007 | gandotinib 0.029 | tozasertib 0.029 | doramapimod -0.03 | bafetinib 0.024 | [6] -0.01

ABCC1 (UniProt P33527)
inactive: alvocidib -0.003 | Tubastatin A 0.017 | [1] -0.024 | defactinib -0.02 | [2] 0.017 | encorafenib 0.009 | [3] 0.03 | alisertib 0.027 | [4] -0.029 | gefitinib -0.063 | lapatinib -0.048 | pictilisib 0.015 | crizotinib -0.034 | [5] -0.036 | duvelisib -0.002 | gandotinib 0.022 | tozasertib -0.033 | doramapimod -0.045 | bafetinib -0.056 | [6] 0.049

ACAA2 (UniProt P42765)
inactive: alvocidib 0.025 | Tubastatin A -0.012 | [1] 0.011 | defactinib 0.028 | [2] 0.059 | encorafenib -0.01 | [3] 0.013 | alisertib -0.002 | [4] 0.002 | gefitinib -0.012 | lapatinib -0.039 | pictilisib -0.02 | crizotinib 0.018 | [5] 0.008 | duvelisib 0.013 | gandotinib 0.043 | tozasertib -0.05 | doramapimod 0.002 | bafetinib 0.019 | [6] 0.003

ACADSB (UniProt P45954)
inactive: alvocidib 0.026 | Tubastatin A -0.005 | [1] -0.035 | defactinib 0.077 | [2] 0.082 | encorafenib 0.027 | [3] 0.068 | alisertib 0.023 | [4] -0.047 | gefitinib 0 | lapatinib 0.064 | pictilisib -0.06 | crizotinib -0.062 | [5] 0.053 | duvelisib 0.065 | gandotinib -0.055 | tozasertib -0.047 | doramapimod 0.033 | bafetinib -0.003 | [6] -0.01

ACACA isoform 4 (UniProt Q13085)
inactive: alvocidib 0.016 | Tubastatin A -0.115 | [1] -0.011 | defactinib -0.008 | [2] -0.02 | encorafenib 0.032 | [3] -0.16 | alisertib 0.014 | [4] 0 | gefitinib -0.004 | lapatinib -0.019 | pictilisib 0 | crizotinib -0.081 | [5] -0.001 | duvelisib 0.032 | gandotinib -0.068 | tozasertib 0.033 | doramapimod 0.045 | bafetinib -0.056 | [6] 0.061

AASDHPPT (UniProt Q9NRN7)
inactive: alvocidib 0.007 | Tubastatin A 0.02 | [1] -0.03 | defactinib -0.02 | [2] -0.021 | encorafenib -0.022 | [3] -0.147 | alisertib 0.025 | [4] -0.01 | gefitinib -0.012 | lapatinib -0.006 | pictilisib -0.013 | crizotinib -0.01 | [5] -0.041 | duvelisib 0.01 | gandotinib 0.013 | tozasertib 0.012 | doramapimod -0.003 | bafetinib 0 | [6] 0.017

ABHD14B (UniProt Q96IU4)
inactive: alvocidib 0.016 | Tubastatin A 0.011 | [1] 0.01 | defactinib 0.026 | [2] 0.063 | encorafenib 0.006 | [3] -0.012 | alisertib 0.004 | [4] -0.032 | gefitinib -0.025 | lapatinib 0.014 | pictilisib -0.003 | crizotinib 0.013 | [5] 0.025 | duvelisib -0.002 | gandotinib -0.006 | tozasertib 0.006 | doramapimod -0.002 | bafetinib -0.039 | [6] 0.013

2 entries picked at random from the list so far:
ACAA2 (UniProt P42765)
inactive: alvocidib 0.025 | Tubastatin A -0.012 | [1] 0.011 | defactinib 0.028 | [2] 0.059 | encorafenib -0.01 | [3] 0.013 | alisertib -0.002 | [4] 0.002 | gefitinib -0.012 | lapatinib -0.039 | pictilisib -0.02 | crizotinib 0.018 | [5] 0.008 | duvelisib 0.013 | gandotinib 0.043 | tozasertib -0.05 | doramapimod 0.002 | bafetinib 0.019 | [6] 0.003

ACACA isoform 4 (UniProt Q13085)
inactive: alvocidib 0.016 | Tubastatin A -0.115 | [1] -0.011 | defactinib -0.008 | [2] -0.02 | encorafenib 0.032 | [3] -0.16 | alisertib 0.014 | [4] 0 | gefitinib -0.004 | lapatinib -0.019 | pictilisib 0 | crizotinib -0.081 | [5] -0.001 | duvelisib 0.032 | gandotinib -0.068 | tozasertib 0.033 | doramapimod 0.045 | bafetinib -0.056 | [6] 0.061

From the supplement of paper PMC10849652
